Measurements reported in PubChem BioAssay AID1259405 (NCATS, 2018)
The deposit covers about 50,000 reagents; this is a part drawn at random. About 4,000 of all reagents (8%) count as active. 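Mouse siRNA library applied to hamster cells; one well for each siRNA.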 A number with no mark means an inactive call. The numbers tell different reagents against one gene apart.

- Aim: 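Knock-downs that lift recombinant protein yield in hamster ovary cells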 (primary screen)
- System: Chinese hamster CHO-K1 ovary cells with stable secreted eGFP expression
- Reagent: single siRNA against mouse genes, 0.8 pmol siRNA per well (2 µl of 400 nM stock)
- Timing: 3 days
- Read-out: 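Per-well intracellular GFP measured by laser scanning cytometry, plus viability from ATP luminescence, each relative to plate median of non-targeting control wells, in %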
- Scale: GFP, % of control: higher = more GFP per well, higher productivity; viability (ATP), % of control: higher = more viable cells (more ATP)
- Call rule: 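a knock-down is called active if GFP reaches 120% or more of non-targeting control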

{"gene knocked down":"Jaml (GeneID 270152)","reagent":1,"GFP, % of control":85,"viability (ATP), % of control":64.6}
{"gene knocked down":"Jaml (GeneID 270152)","reagent":2,"GFP, % of control":66.5,"viability (ATP), % of control":70.7}
{"gene knocked down":"Jaml (GeneID 270152)","reagent":3,"GFP, % of control":46,"viability (ATP), % of control":74.7}
{"gene knocked down":"Pfdn1 (GeneID 67199)","reagent":1,"GFP, % of control":74.1,"viability (ATP), % of control":84.4}
{"gene knocked down":"Pfdn1 (GeneID 67199)","reagent":2,"GFP, % of control":47.3,"viability (ATP), % of control":46}
{"gene knocked down":"Pfdn1 (GeneID 67199)","reagent":3,"GFP, % of control":82.3,"viability (ATP), % of control":107}
{"gene knocked down":"1700120K04Rik (GeneID 68232)","reagent":1,"GFP, % of control":64.2,"viability (ATP), % of control":52.7}
{"gene knocked down":"1700120K04Rik (GeneID 68232)","reagent":2,"GFP, % of control":46.7,"viability (ATP), % of control":84.8}
{"gene knocked down":"1700120K04Rik (GeneID 68232)","reagent":3,"GFP, % of control":60.1,"viability (ATP), % of control":55.8}
{"gene knocked down":"B3gat3 (GeneID 72727)","reagent":1,"GFP, % of control":77.3,"viability (ATP), % of control":78.2}
{"gene knocked down":"B3gat3 (GeneID 72727)","reagent":2,"GFP, % of control":89.8,"viability (ATP), % of control":107}
{"gene knocked down":"B3gat3 (GeneID 72727)","reagent":3,"GFP, % of control":90.9,"viability (ATP), % of control":96.5}
{"gene knocked down":"Pax4 (GeneID 18506)","reagent":1,"GFP, % of control":"128 (active)","viability (ATP), % of control":107}
{"gene knocked down":"Pax4 (GeneID 18506)","reagent":2,"GFP, % of control":83.1,"viability (ATP), % of control":90.7}
{"gene knocked down":"Ppm1l (GeneID 242083)","reagent":1,"GFP, % of control":99.7,"viability (ATP), % of control":78.1}
{"gene knocked down":"Ppm1l (GeneID 242083)","reagent":2,"GFP, % of control":111,"viability (ATP), % of control":49.8}
{"gene knocked down":"Ppm1l (GeneID 242083)","reagent":3,"GFP, % of control":98.8,"viability (ATP), % of control":60.4}

No new results follow: an excerpt of the list.
{"gene knocked down":"Ppm1l (GeneID 242083)","reagent":2,"GFP, % of control":111,"viability (ATP), % of control":49.8}
{"gene knocked down":"Ppm1l (GeneID 242083)","reagent":3,"GFP, % of control":98.8,"viability (ATP), % of control":60.4}
